Measurements: article PMC13294675
These are yes or no findings as the source states them, for the method shown. For part of these data: Binding can be weak; no strength is given. For part of these data: Sequences can lack the tags named with a protein.

Experiments:
Experiment in all cases: two-hybrid; Gal4-based Y2H, pGBKT7 and pGADT7 in S. cerevisiae PJ69-4A; drop tests on SD -Leu/-Trp/-His with 3-AT (0.1 to 30 mM; 0.2 mM in Fig. 4F), 28°C
[1] = molecular target: Gal4BD-βKNL2(50–154) (Arabidopsis thaliana)
[2] = molecular target: Gal4BD-βKNL2(50–218) (Arabidopsis thaliana)
[3] = molecular target: full-length AtβKNL2 (yeast two-hybrid fusion) (Arabidopsis thaliana)

| Binder | binding [1] | binding [2] | binding [3] |
| --- | --- | --- | --- |
| Gal4AD-αKNL2(1–118) (domain or fragment, UniProt F4KCE9 1-118) MTEPNLDEDGSKSSFQKTVVLRDWWLIKCPKEFEGKQFGVAGFEESVETRAMRVFTSSPITKALDVFTLLASDGIYITLRGFLNKERVLKNGFNPEISREFIFGFPPCWERVCNSCFE | binds | no binding |  |
| full-length AtαKNL2 (yeast two-hybrid fusion) (protein, UniProt F4KCE9 1-598) MTEPNLDEDGSKSSFQKTVVLRDWWLIKCPKEFEGKQFGVAGFEESVETRAMRVFTSSPITKALDVFTLLASDGIYITLRGFLNKERVLKNGFNPEISREFIFGFPPCWERVCNSCFEGDSFGTDVNTVPSTIEKACPPILSPCKYSNRNLKDNPAESREKSNVTETDIAEINDKGGSGARDIKTARRRSLHLQIKRILESSKVRKTANDGDHGSEFLNTAKRGDVERDGCEVINNEDSEWKLDESEVQNLCNDGDNGSEGFIKAKSSDVEKDKSEAIDNDVISPAVGSGIKHTGADNVDKVTSASATGESLTSEQQNGLLVTTASPHSLLKDLAKSSKPEKKGISKKSGKILRSDDNVVDPMNYSGTKVKSAENKRKIDASKLQSPTSNVAEHSKEGLNNAKSNDVEKDVCVAINNEVISPVKGFGKRLSGTDVERLTSKNATKESLTSVQRKGRVKVSKAFQDPLSKGKSKKSEKTLQSNSNVVEPMNHFRSEAEEAEENLSWEKIKRKIDFDVEVTPEKKVKQQKTNAASTDSLGQKRSRSGRVLVSSLEFWRNQIPVYDMDRNLIQVKDGSETNSAPSKGKGSDSRKRRNLKIK |  |  | no binding |
